{
  "source": "patent US11845989B2",
  "about": "“Treatment of ophthalmic conditions with angiopoietin-like 7 (ANGPTL7) inhibitors” (Regeneron Pharmaceuticals, Inc., priority 2019, dated 2023)",
  "tested_on": "human trabecular meshwork (hTM) primary cell lines",
  "assay": "Dexamethasone treatment of human TM primary cell lines, qPCR of ANGPTL7 expression",
  "assay_type": "cell-based",
  "details": "DEX 100 nM, 72 hours, versus vehicle (0.1% ethanol); effect in two out of three hTM cell lines",
  "note": "For at least one compound, name, drawing or mass did not settle the structure.",
  "data": [
    {"smiles": "C[C@@H]1C[C@H]2[C@@H]3CCC4=CC(=O)C=C[C@]4(C)[C@@]3(F)[C@@H](O)C[C@]2(C)[C@@]1(O)C(=O)CO", "note": "[DEX, dexamethasone]", "values": [
      {"measurement": "ANGPTL7 expression (qPCR)", "result": "increased expression of ANGPTL7"}
    ]}
  ]
}
